Assay [1] deals with T1, PfRbx1 with C-terminal Myc-tag (P. falciparum) (UniProt O77367).
T1 sequence: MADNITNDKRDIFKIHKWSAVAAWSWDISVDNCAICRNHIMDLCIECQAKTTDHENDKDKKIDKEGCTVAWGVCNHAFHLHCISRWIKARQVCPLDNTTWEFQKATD
The experiment in a line: co-IP; equal amounts of PfRbx1myc-epi and PfCul2KDD10 parasite lysates mixed, supplemented with 2 mM ATP, 5 mM MgCl2 and 0.2 mM DTT, 2 h at room temperature; Myc-Trap immunoprecipitation; blot with anti-Myc, then anti-HA.

Sequences of proteins named here, by UniProt entry; tags and fusion partners are left off.
UniProt C6KTD3: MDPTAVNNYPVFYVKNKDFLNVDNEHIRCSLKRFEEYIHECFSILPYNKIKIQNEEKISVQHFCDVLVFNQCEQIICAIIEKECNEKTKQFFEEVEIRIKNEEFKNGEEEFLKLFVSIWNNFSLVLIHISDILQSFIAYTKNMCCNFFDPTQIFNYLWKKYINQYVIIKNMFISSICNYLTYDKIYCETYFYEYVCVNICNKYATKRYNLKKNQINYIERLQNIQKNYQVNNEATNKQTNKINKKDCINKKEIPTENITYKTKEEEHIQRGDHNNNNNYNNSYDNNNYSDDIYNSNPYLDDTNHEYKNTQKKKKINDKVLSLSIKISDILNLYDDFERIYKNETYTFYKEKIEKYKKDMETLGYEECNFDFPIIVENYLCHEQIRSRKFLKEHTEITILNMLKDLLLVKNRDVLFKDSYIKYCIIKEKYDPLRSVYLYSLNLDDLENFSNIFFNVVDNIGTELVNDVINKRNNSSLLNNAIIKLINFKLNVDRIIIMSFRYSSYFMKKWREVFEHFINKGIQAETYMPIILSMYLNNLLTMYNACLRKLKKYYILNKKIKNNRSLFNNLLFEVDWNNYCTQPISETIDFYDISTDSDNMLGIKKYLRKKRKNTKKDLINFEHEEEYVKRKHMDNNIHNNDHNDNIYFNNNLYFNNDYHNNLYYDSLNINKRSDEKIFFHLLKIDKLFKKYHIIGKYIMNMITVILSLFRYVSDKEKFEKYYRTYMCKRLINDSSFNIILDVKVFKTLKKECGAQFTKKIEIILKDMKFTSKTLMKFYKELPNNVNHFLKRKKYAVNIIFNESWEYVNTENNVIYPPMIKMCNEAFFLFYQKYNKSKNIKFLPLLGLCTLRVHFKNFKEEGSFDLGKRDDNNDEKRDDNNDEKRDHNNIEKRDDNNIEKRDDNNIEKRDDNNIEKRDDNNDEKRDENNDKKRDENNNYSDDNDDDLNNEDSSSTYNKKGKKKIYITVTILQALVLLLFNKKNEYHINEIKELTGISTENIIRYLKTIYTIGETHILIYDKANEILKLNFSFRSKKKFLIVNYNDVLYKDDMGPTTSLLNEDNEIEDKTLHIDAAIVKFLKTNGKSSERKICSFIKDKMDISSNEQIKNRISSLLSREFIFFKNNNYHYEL

Assay [2] has as its target T2, 6×His-tagged PfSkp1 (P. falciparum), Q8ID38.
T2 chain: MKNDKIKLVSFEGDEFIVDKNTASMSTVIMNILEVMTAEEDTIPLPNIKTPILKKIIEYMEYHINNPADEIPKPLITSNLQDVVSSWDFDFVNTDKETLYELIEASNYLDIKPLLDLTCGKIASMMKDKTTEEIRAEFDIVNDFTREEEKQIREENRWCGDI
Briefly: far-Western, overlay or dot blot; dot blot protein overlay: different amounts of HisSkp, HisSUMO/Rbx or HisSUMO spotted on nitrocellulose, blocked (3% BSA in PBS-T), overlaid with 10 μg of GST or GST-tagged protein for 12 h at 4°C, detected with anti-GST antibodies; both purified. As to conditions: remark: other sources report otherwise.

These are yes or no findings as the source states them, for the method shown. For some assays here: Binding seen in cells or lysates may run through a third protein. Some results given as binding are weak or reduced against the parent protein; the word gives no strength. Tags and fused reporters may be left off the sequences shown.

As for “PfCullin-2/cDDHA (from UniProt C6KTD3 1-1129)”, the binding result in assay [1] is “binds”.

B1: 6×His/SUMO-tagged PfRbx1 (natural protein, P. falciparum, UniProt O77367 1-107, looked up)
chain: T1 sequence
notes: P. falciparum Rbx1 (PfRbx1, PF3D7_0319100), complete coding region, subcloned into pSMO; also called HisSUMO/Rbx; HisSUMO/PfRbx1; source: E. coli Rosetta-gami 2(DE3) pLysS, purified (Ni-NTA, native conditions); not shown: His6, N-terminal, kept; SUMO, N-terminal, kept
For the molecule B1, the binding result in assay [2] is given as “no binding (tested: 10 μg overlaid)”.

The values are drawn from paper PMC10927090, “Plasmodium falciparum contains functional SCF and CRL4 ubiquitin E3 ligases, and CRL4 is critical for cell division and membrane integrity” (PLOS Pathogens, 2024).
